The filed quantity is “Percent Effect” (%). The record does not define 0% and 100%; most values in the screen are far below 50% and negative numbers occur (in some assays of this library far below -100). This is an unselected part of the compounds tested. Two or more numbers in one place are separate tests of the same structure; such repeats can differ widely.

Mtb glucose medium: 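Phenotypic screen: M. tuberculosis growth, glucose 7H9 medium, 3 days; the read-out is not stated. Compounds at 50 µM. The record gives no direction; compounds that gave an IC50 in retests scored well above the rest, so higher reads as more growth inhibition. Size under these conditions: about 69,000 compounds, about 760 of them at 50% or above in at least one test.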
Mtb cholesterol medium: 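Phenotypic screen: M. tuberculosis growth, cholesterol and DPPC medium, 4 days; the read-out is not stated. Compounds at 50 µM. The record gives no direction; compounds that gave an IC50 in retests scored well above the rest, so higher reads as more growth inhibition. Of about 69,000 compounds tested this way, about 370 (0.54%) reached 50% or more in at least one test.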

{"compound": "O=C(CN1CCCC1Cn1cncn1)NCCOc1ccc(F)cc1", "stereo": "centres undefined", "Mtb glucose medium": -1.062, "Mtb cholesterol medium": -6.754}
{"compound": "CC(C)[C@@H]1CN(S(=O)(=O)Cc2ccccc2)C[C@H]1NS(=O)(=O)N(C)C", "Mtb glucose medium": 3.733, "Mtb cholesterol medium": 6.679}
{"compound": "Cc1cccc2c1CCN(c1cc(N3CCCC3CO)ncn1)C2", "stereo": "centres undefined", "Mtb glucose medium": 27.37, "Mtb cholesterol medium": 23.7}
{"compound": "Cn1ccnc1CCNS(=O)(=O)c1ccc(Br)cc1", "Mtb glucose medium": -23.28, "Mtb cholesterol medium": -12.71}
{"compound": "Cc1c(F)cccc1NC(=O)N(C(C)CS(C)(=O)=O)C1CC1", "stereo": "centres undefined", "Mtb glucose medium": 0.7825, "Mtb cholesterol medium": 3.743}
{"compound": "CCn1ncc2[nH]c(-c3cc4c(cc3OC)OCO4)nc21", "Mtb glucose medium": 14.45, "Mtb cholesterol medium": 26.15}
{"compound": "Cn1cc(N2CCC(NC(=O)c3c(F)cccc3F)C2=O)cn1", "stereo": "centres undefined", "Mtb glucose medium": 5.796, "Mtb cholesterol medium": 2.413}
{"compound": "O=C(O)c1nnn(-c2ccccc2)c1-c1ccncc1", "Mtb glucose medium": -14.76, "Mtb cholesterol medium": -23.39}
{"compound": "O=C1CC2(CCN(c3nncs3)C2)CN1c1ccc2c(c1)OCCO2", "stereo": "centres undefined", "Mtb glucose medium": -0.3616, "Mtb cholesterol medium": -11.82}
{"compound": "Cn1c(-c2ccc(F)cc2)cn2cc(C(=O)N3CC[C@@H](O)C3)nc2c1=O", "Mtb glucose medium": "14.9 and -0.3615", "Mtb cholesterol medium": 3.246}
{"compound": "O=C(c1ncccc1O)N1CCc2c(ncnc2N2CCOCC2)C1", "Mtb glucose medium": -28.24, "Mtb cholesterol medium": -25.32}
{"compound": "O=C(c1ccc(=O)[nH]n1)N1CCCC1CCc1ccccc1", "stereo": "centres undefined", "Mtb glucose medium": "17.35 and -4.408", "Mtb cholesterol medium": -10.08}
{"compound": "CC(C)NS(=O)(=O)c1cc(C(=O)O)cc(-c2ccccc2F)c1", "Mtb glucose medium": "-0.4206 and 21.1", "Mtb cholesterol medium": 3.602}
{"compound": "CC(C)Oc1ccc(NCc2ccc([S+](C)[O-])cc2)c(F)c1", "stereo": "centres undefined", "Mtb glucose medium": "17.17 and 41.67", "Mtb cholesterol medium": 21.67}
{"compound": "O=C(O)C(F)(F)F.[H][C@@]12CCN(Cc3ccccc3)C[C@]1([H])O[C@H](C(=O)NC1CC1)C2", "Mtb glucose medium": 0.9425, "Mtb cholesterol medium": "-36.58 and -24.63"}
{"compound": "Cc1ccccc1CN(CCN(C)C)Cc1ccc(O)c(C(=O)O)c1", "Mtb glucose medium": 4.663, "Mtb cholesterol medium": 9.233}
{"compound": "C[C@]1(O)CN(CCC(N)=O)CC[C@@H]1Oc1cccc(F)c1", "Mtb glucose medium": 26.94, "Mtb cholesterol medium": -6.813}
{"compound": "O=C(O)C(F)(F)F.O=C(O)C(F)(F)F.O=C(O)C(F)(F)F.[H][C@@]12CCCO[C@]1([H])[C@H](N(C)Cc1ccco1)CN2Cc1cccnc1", "Mtb glucose medium": -34.02, "Mtb cholesterol medium": "-4.945 and -8.055"}
{"compound": "OC1(CNCCSCc2ccccc2)CCCNC1", "stereo": "centres undefined", "Mtb glucose medium": -33.38, "Mtb cholesterol medium": -8.637}
{"compound": "COc1ccc(CNC(=O)C2=NN(c3ccc(C)cc3)C(=O)CN2)cc1", "Mtb glucose medium": "10.19 and 8.555", "Mtb cholesterol medium": -0.1159}
{"compound": "CNC(=O)[C@@H]1C[C@H](N)CN1Cc1cc2cc(C)cc(C)c2[nH]c1=O", "Mtb glucose medium": 10.58, "Mtb cholesterol medium": "5.037 and -7.43"}
{"compound": "CNC(=O)c1cccnc1N1CCN(Cc2ccccc2)C(CCO)C1", "stereo": "centres undefined", "Mtb glucose medium": 8.621, "Mtb cholesterol medium": -3.333}
{"compound": "COc1ccnc(N2CCC3(CCCN(CC4CC4)C3=O)C2)n1", "stereo": "centres undefined", "Mtb glucose medium": 14.8, "Mtb cholesterol medium": 4.944}
{"compound": "COc1cccc(CNCc2cccc(Cl)c2)c1O", "Mtb glucose medium": "9.339 and -7.434", "Mtb cholesterol medium": 11.92}
{"compound": "O=C(Cc1csc(-c2cccc(Cl)c2)n1)NCc1cccc(C(=O)O)c1", "Mtb glucose medium": -37.91, "Mtb cholesterol medium": -22.77}

Some entries from above, unchanged:

compound	Mtb glucose medium	Mtb cholesterol medium
O=C1CC2(CCN(c3nncs3)C2)CN1c1ccc2c(c1)OCCO2 (centres undefined)	-0.3616	-11.82
COc1cccc(CNCc2cccc(Cl)c2)c1O	9.339 and -7.434	11.92
Cn1ccnc1CCNS(=O)(=O)c1ccc(Br)cc1	-23.28	-12.71

From ChEMBL document CHEMBL3988442, “University of Dundee, Small-Polar-MMV Screening Library” (2021).